# Measured values as given in the supplement of paper PMC8728848.
# The other results are listed elsewhere or left out.
# B1: Mermaid2 (Stilbonema majum) (protein)
# chain: MGSSHHHHHHSSGLVPRGSHMAASGWLRSPQGTVVKLYRRSLSWSKADEFCKDVDGRLVVDRTADMHLFLIKNVLKEKKSRVWVGLRRTAPHSRTWIWSDGTRQNEDDLNTNLWLRDEPNDAAGEEECALFMYSPWEKAWGLNDYLCRGGCRSYQFICEKGIR
# Assays:
# Experiment in all cases: glycan array binding signal (z-score within array); higher = stronger binding
# Details in all cases: glycan notation: IUPAC condensed, linker removed
# [1] = target: GlcNAc(b1-2)Gal(b1-3)GalNAc
# Outline: (§1)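 From the Consortium for Functional Glycomics database, 3228 arrays were curated, keeping only those whose protein sequence was available. Binding is given as a within-array Z-score averaged across arrays sharing a protein sequence and across linkers. Negative Z-scores can be read as non-binding.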
# [2] = target: GlcNAc(b1-2)Man(a1-3)[GlcNAc(b1-2)Man(a1-6)]Man(b1-4)GlcNAc(b1-4)GlcNAc
# Outline: as §1
# [3] = target: GlcNAc(b1-2)Man(a1-3)[GlcNAc(b1-2)Man(a1-6)]Man(b1-4)GlcNAc(b1-4)[Fuc(a1-6)]GlcNAc
# Outline: as §1
# [4] = target: GlcNAc(b1-2)Man(a1-3)[GlcNAc(b1-4)][GlcNAc(b1-2)Man(a1-6)]Man(b1-4)GlcNAc(b1-4)GlcNAc
# Outline: as §1
# [5] = target: GlcNAc(b1-2)Man(a1-3)[GlcNAc(b1-4)][GlcNAc(b1-2)Man(a1-6)]Man(b1-4)GlcNAc(b1-4)[Fuc(a1-6)]GlcNAc
# Outline: as §1
# [6] = target: GlcNAc(b1-2)[GlcNAc(b1-4)]Man(a1-3)[GlcNAc(b1-2)Man(a1-6)]Man(b1-4)GlcNAc(b1-4)GlcNAc
# Outline: as §1
# [7] = target: GlcNAc(b1-2)[GlcNAc(b1-4)]Man(a1-3)[GlcNAc(b1-4)][GlcNAc(b1-2)Man(a1-6)]Man(b1-4)GlcNAc(b1-4)GlcNAc
# Outline: as §1
# [8] = target: GlcNAc(b1-2)[GlcNAc(b1-4)]Man(a1-3)[GlcNAc(b1-4)][GlcNAc(b1-2)[GlcNAc(b1-6)]Man(a1-6)]Man(b1-4)GlcNAc(b1-4)GlcNAc
# Outline: as §1
# [9] = target: GlcNAc(b1-2)[GlcNAc(b1-4)]Man(a1-3)[GlcNAc(b1-4)][GlcNAc(b1-2)[GlcNAc(b1-6)]Man(a1-6)]Man(b1-4)GlcNAc(b1-4)[Fuc(a1-6)]GlcNAc
# Outline: as §1
# [10] = target: GlcNAc(b1-2)[GlcNAc(b1-6)]Man(a1-6)[GlcNAc(b1-2)Man(a1-3)]Man(b1-4)GlcNAc(b1-4)GlcNAc
# Outline: as §1
# [11] = target: GlcNAc(b1-2)[GlcNAc(b1-6)]Man(a1-6)[GlcNAc(b1-2)Man(a1-3)]Man(b1-4)GlcNAc(b1-4)[Fuc(a1-6)]GlcNAc
# Outline: as §1
# [12] = target: GlcNAc(b1-2)[GlcNAc(b1-6)]Man(a1-6)[GlcNAc(b1-4)][GlcNAc(b1-2)Man(a1-3)]Man(b1-4)GlcNAc(b1-4)GlcNAc
# Outline: as §1
# GlcNAc(b1-3)Fuc = target: GlcNAc(b1-3)Fuc
# Outline: as §1
# GlcNAc(b1-3)Gal = target: GlcNAc(b1-3)Gal
# Outline: as §1
# [13] = target: GlcNAc(b1-3)Gal(b1-3)GalNAc
# Outline: as §1
# GlcNAc(b1-3)Gal(b1-4)Glc = target: GlcNAc(b1-3)Gal(b1-4)Glc
# Outline: as §1
# [14] = target: GlcNAc(b1-3)Gal(b1-4)GlcNAc
# Outline: as §1
# [15] = target: GlcNAc(b1-3)Gal(b1-4)GlcNAc(b1-2)Man(a1-3)[GlcNAc(b1-3)Gal(b1-4)GlcNAc(b1-2)Man(a1-6)]Man(b1-4)GlcNAc(b1-4)GlcNAc
# Outline: as §1
# [16] = target: GlcNAc(b1-3)Gal(b1-4)GlcNAc(b1-2)Man(a1-3)[GlcNAc(b1-3)Gal(b1-4)GlcNAc(b1-2)Man(a1-6)]Man(b1-4)GlcNAc(b1-4)[Fuc(a1-6)]GlcNAc
# Outline: as §1
# [17] = target: GlcNAc(b1-3)Gal(b1-4)GlcNAc(b1-2)[GlcNAc(b1-3)Gal(b1-4)GlcNAc(b1-6)]Man(a1-6)[GlcNAc(b1-3)Gal(b1-4)GlcNAc(b1-2)Man(a1-3)]Man(b1-4)GlcNAc(b1-4)GlcNAc
# Outline: as §1
# [18] = target: GlcNAc(b1-3)Gal(b1-4)GlcNAc(b1-3)Gal(b1-4)GlcNAc
# Outline: as §1
# [19] = target: GlcNAc(b1-3)Gal(b1-4)GlcNAc(b1-3)Gal(b1-4)GlcNAc(b1-2)Man(a1-3)[GlcNAc(b1-3)Gal(b1-4)GlcNAc(b1-3)Gal(b1-4)GlcNAc(b1-2)Man(a1-6)]Man(b1-4)GlcNAc(b1-4)GlcNAc
# Outline: as §1
# [20] = target: GlcNAc(b1-3)Gal(b1-4)GlcNAc(b1-3)Gal(b1-4)GlcNAc(b1-2)Man(a1-3)[GlcNAc(b1-3)Gal(b1-4)GlcNAc(b1-3)Gal(b1-4)GlcNAc(b1-2)Man(a1-6)]Man(b1-4)GlcNAc(b1-4)[Fuc(a1-6)]GlcNAc
# Outline: as §1
# [21] = target: GlcNAc(b1-3)Gal(b1-4)GlcNAc(b1-3)Gal(b1-4)GlcNAc(b1-2)[GlcNAc(b1-3)Gal(b1-4)GlcNAc(b1-3)Gal(b1-4)GlcNAc(b1-6)]Man(a1-6)[GlcNAc(b1-3)Gal(b1-4)GlcNAc(b1-3)Gal(b1-4)GlcNAc(b1-2)Man(a1-3)]Man(b1-4)GlcNAc(b1-4)[Fuc(a1-6)]GlcNAc
# Outline: as §1
# [22] = target: GlcNAc(b1-3)Gal(b1-4)GlcNAc(b1-3)Gal(b1-4)GlcNAc(b1-3)Gal(b1-4)GlcNAc(b1-2)Man(a1-3)[GlcNAc(b1-3)Gal(b1-4)GlcNAc(b1-3)Gal(b1-4)GlcNAc(b1-3)Gal(b1-4)GlcNAc(b1-2)Man(a1-6)]Man(b1-4)GlcNAc(b1-4)GlcNAc
# Outline: as §1
# [23] = target: GlcNAc(b1-3)Gal(b1-4)GlcNAc(b1-3)Gal(b1-4)GlcNAc(b1-3)Gal(b1-4)GlcNAc(b1-2)Man(a1-3)[GlcNAc(b1-3)Gal(b1-4)GlcNAc(b1-3)Gal(b1-4)GlcNAc(b1-3)Gal(b1-4)GlcNAc(b1-2)Man(a1-6)]Man(b1-4)GlcNAc(b1-4)[Fuc(a1-6)]GlcNAc
# Outline: as §1
# [24] = target: GlcNAc(b1-3)Gal(b1-4)GlcNAc(b1-3)Gal(b1-4)GlcNAc(b1-3)Gal(b1-4)GlcNAc(b1-2)[GlcNAc(b1-3)Gal(b1-4)GlcNAc(b1-3)Gal(b1-4)GlcNAc(b1-3)Gal(b1-4)GlcNAc(b1-6)]Man(a1-6)[GlcNAc(b1-3)Gal(b1-4)GlcNAc(b1-3)Gal(b1-4)GlcNAc(b1-3)Gal(b1-4)GlcNAc(b1-2)Man(a1-3)]Man(b1-4)GlcNAc(b1-4)[Fuc(a1-6)]GlcNAc
# Outline: as §1
# [25] = target: GlcNAc(b1-3)Gal(b1-4)GlcNAc(b1-3)Gal(b1-4)GlcNAc(b1-3)Gal(b1-4)GlcNAc(b1-3)Gal(b1-4)GlcNAc(b1-2)Man(a1-3)[GlcNAc(b1-3)Gal(b1-4)GlcNAc(b1-3)Gal(b1-4)GlcNAc(b1-3)Gal(b1-4)GlcNAc(b1-3)Gal(b1-4)GlcNAc(b1-2)Man(a1-6)]Man(b1-4)GlcNAc(b1-4)GlcNAc
# Outline: as §1
# [26] = target: GlcNAc(b1-3)Gal(b1-4)GlcNAc(b1-3)Gal(b1-4)GlcNAc(b1-3)Gal(b1-4)GlcNAc(b1-3)Gal(b1-4)GlcNAc(b1-2)Man(a1-3)[GlcNAc(b1-3)Gal(b1-4)GlcNAc(b1-3)Gal(b1-4)GlcNAc(b1-3)Gal(b1-4)GlcNAc(b1-3)Gal(b1-4)GlcNAc(b1-2)Man(a1-6)]Man(b1-4)GlcNAc(b1-4)[Fuc(a1-6)]GlcNAc
# Outline: as §1
# [27] = target: GlcNAc(b1-3)Gal(b1-4)GlcNAc(b1-3)Gal(b1-4)GlcNAc(b1-3)Gal(b1-4)GlcNAc(b1-3)Gal(b1-4)GlcNAc(b1-2)[GlcNAc(b1-3)Gal(b1-4)GlcNAc(b1-3)Gal(b1-4)GlcNAc(b1-3)Gal(b1-4)GlcNAc(b1-3)Gal(b1-4)GlcNAc(b1-6)]Man(a1-6)[GlcNAc(b1-3)Gal(b1-4)GlcNAc(b1-3)Gal(b1-4)GlcNAc(b1-3)Gal(b1-4)GlcNAc(b1-3)Gal(b1-4)GlcNAc(b1-2)Man(a1-3)]Man(b1-4)GlcNAc(b1-4)[Fuc(a1-6)]GlcNAc
# Outline: as §1
# [28] = target: GlcNAc(b1-3)Gal(b1-4)GlcNAc(b1-3)Gal(b1-4)GlcNAc(b1-3)GalNAc
# Outline: as §1
# [29] = target: GlcNAc(b1-3)Gal(b1-4)GlcNAc(b1-3)GalNAc
# Outline: as §1
# [30] = target: GlcNAc(b1-3)Gal(b1-4)GlcNAc(b1-3)[GlcNAc(b1-3)Gal(b1-4)GlcNAc(b1-3)]GalNAc
# Outline: as §1
# [31] = target: GlcNAc(b1-3)Gal(b1-4)GlcNAc(b1-6)[Gal(b1-3)]GalNAc
# Outline: as §1
# [32] = target: GlcNAc(b1-3)Gal(b1-4)GlcNAc(b1-6)[GlcNAc(b1-3)Gal(b1-3)]GalNAc
# Outline: as §1
# [33] = target: GlcNAc(b1-3)Gal(b1-4)GlcNAc(b1-6)[GlcNAc(b1-3)]Gal(b1-4)GlcNAc
# Outline: as §1
# GlcNAc(b1-3)GalNAc = target: GlcNAc(b1-3)GalNAc
# Outline: as §1
# GlcNAc(b1-3)Man = target: GlcNAc(b1-3)Man
# Outline: as §1
# [34] = target: GlcNAc(b1-3)[GlcNAc(b1-4)][GlcNAc(b1-6)]GlcNAc
# Outline: as §1
# [35] = target: GlcNAc(b1-3)[GlcNAc(b1-6)]Gal(b1-4)GlcNAc
# Outline: as §1
# [36] = target: GlcNAc(b1-3)[GlcNAc(b1-6)]GalNAc
# Outline: as §1
# [37] = target: GlcNAc(b1-4)Gal(b1-4)GlcNAc
# Outline: as §1
# GlcNAc(b1-4)GlcNAc = target: GlcNAc(b1-4)GlcNAc
# Outline: as §1
# [38] = target: GlcNAc(b1-4)GlcNAc(b1-4)GlcNAc
# Outline: as §1
# [39] = target: GlcNAc(b1-4)GlcNAc(b1-4)GlcNAc(b1-4)GlcNAc(b1-4)GlcNAc
# Outline: as §1
binder,measurement,setting,value
B1,glycan array binding signal (z-score),[1],-0.473
same,glycan array binding signal (z-score),[2],-0.35
same,glycan array binding signal (z-score),[3],0.316
same,glycan array binding signal (z-score),[4],-0.61
same,glycan array binding signal (z-score),[5],-0.881
same,glycan array binding signal (z-score),[6],-0.56
same,glycan array binding signal (z-score),[7],-0.864
same,glycan array binding signal (z-score),[8],-0.879
same,glycan array binding signal (z-score),[9],0.039
same,glycan array binding signal (z-score),[10],-0.776
same,glycan array binding signal (z-score),[11],-0.217
same,glycan array binding signal (z-score),[12],-0.487
same,glycan array binding signal (z-score),GlcNAc(b1-3)Fuc,-0.172
same,glycan array binding signal (z-score),GlcNAc(b1-3)Gal,-0.448
same,glycan array binding signal (z-score),[13],-0.101
same,glycan array binding signal (z-score),GlcNAc(b1-3)Gal(b1-4)Glc,-0.367
same,glycan array binding signal (z-score),[14],-0.634
same,glycan array binding signal (z-score),[15],-0.025
same,glycan array binding signal (z-score),[16],0.384
same,glycan array binding signal (z-score),[17],0.568
same,glycan array binding signal (z-score),[18],-0.357
same,glycan array binding signal (z-score),[19],0.201
same,glycan array binding signal (z-score),[20],0.969
same,glycan array binding signal (z-score),[21],0.522
same,glycan array binding signal (z-score),[22],-0.346
same,glycan array binding signal (z-score),[23],0.765
same,glycan array binding signal (z-score),[24],0.306
same,glycan array binding signal (z-score),[25],0.163
same,glycan array binding signal (z-score),[26],0.011
same,glycan array binding signal (z-score),[27],-0.292
same,glycan array binding signal (z-score),[28],-0.057
same,glycan array binding signal (z-score),[29],-0.528
same,glycan array binding signal (z-score),[30],0.761
same,glycan array binding signal (z-score),[31],-0.528
same,glycan array binding signal (z-score),[32],0.067
same,glycan array binding signal (z-score),[33],-0.719
same,glycan array binding signal (z-score),GlcNAc(b1-3)GalNAc,-0.441
same,glycan array binding signal (z-score),GlcNAc(b1-3)Man,0.674
same,glycan array binding signal (z-score),[34],-0.642
same,glycan array binding signal (z-score),[35],-0.411
same,glycan array binding signal (z-score),[36],-0.669
same,glycan array binding signal (z-score),[37],0.774
same,glycan array binding signal (z-score),GlcNAc(b1-4)GlcNAc,2.91
same,glycan array binding signal (z-score),[38],0.454
same,glycan array binding signal (z-score),[39],1.2

# 3 entries drawn at random from those above:
binder,measurement,setting,value
B1,glycan array binding signal (z-score),[24],0.306
same,glycan array binding signal (z-score),GlcNAc(b1-3)GalNAc,-0.441
same,glycan array binding signal (z-score),[11],-0.217
